In paper doi:10.1101/2021.08.09.455730:
No constants are given. Whether binding was seen depends on the method and setting. Binding seen in cells or lysates may run through a third protein. These calls come from enrichment with a bait or labelling near it, and not all partners need be listed.

Chains of the proteins cited; added tags and fusions are not shown.
UniProt Q8BLR2: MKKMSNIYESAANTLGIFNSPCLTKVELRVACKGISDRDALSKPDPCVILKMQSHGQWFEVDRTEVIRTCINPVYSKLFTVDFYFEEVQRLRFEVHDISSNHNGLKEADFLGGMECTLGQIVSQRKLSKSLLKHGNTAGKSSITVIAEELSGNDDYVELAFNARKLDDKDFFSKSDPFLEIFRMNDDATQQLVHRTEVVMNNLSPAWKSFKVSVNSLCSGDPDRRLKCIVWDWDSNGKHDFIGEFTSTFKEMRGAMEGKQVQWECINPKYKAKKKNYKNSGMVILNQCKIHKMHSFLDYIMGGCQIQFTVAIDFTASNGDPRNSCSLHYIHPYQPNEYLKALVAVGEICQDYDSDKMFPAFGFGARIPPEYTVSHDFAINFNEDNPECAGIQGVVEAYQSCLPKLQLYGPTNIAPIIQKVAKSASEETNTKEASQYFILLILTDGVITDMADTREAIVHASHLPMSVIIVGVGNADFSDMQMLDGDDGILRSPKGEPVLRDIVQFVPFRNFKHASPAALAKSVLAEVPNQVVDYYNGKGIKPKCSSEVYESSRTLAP
UniProt P62259: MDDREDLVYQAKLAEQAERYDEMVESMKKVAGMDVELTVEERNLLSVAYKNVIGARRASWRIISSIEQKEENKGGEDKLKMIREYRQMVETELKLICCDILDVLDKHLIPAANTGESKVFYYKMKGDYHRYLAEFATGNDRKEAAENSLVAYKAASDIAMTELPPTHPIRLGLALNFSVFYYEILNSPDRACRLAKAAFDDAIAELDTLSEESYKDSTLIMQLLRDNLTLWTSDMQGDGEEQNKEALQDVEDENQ
UniProt P14873: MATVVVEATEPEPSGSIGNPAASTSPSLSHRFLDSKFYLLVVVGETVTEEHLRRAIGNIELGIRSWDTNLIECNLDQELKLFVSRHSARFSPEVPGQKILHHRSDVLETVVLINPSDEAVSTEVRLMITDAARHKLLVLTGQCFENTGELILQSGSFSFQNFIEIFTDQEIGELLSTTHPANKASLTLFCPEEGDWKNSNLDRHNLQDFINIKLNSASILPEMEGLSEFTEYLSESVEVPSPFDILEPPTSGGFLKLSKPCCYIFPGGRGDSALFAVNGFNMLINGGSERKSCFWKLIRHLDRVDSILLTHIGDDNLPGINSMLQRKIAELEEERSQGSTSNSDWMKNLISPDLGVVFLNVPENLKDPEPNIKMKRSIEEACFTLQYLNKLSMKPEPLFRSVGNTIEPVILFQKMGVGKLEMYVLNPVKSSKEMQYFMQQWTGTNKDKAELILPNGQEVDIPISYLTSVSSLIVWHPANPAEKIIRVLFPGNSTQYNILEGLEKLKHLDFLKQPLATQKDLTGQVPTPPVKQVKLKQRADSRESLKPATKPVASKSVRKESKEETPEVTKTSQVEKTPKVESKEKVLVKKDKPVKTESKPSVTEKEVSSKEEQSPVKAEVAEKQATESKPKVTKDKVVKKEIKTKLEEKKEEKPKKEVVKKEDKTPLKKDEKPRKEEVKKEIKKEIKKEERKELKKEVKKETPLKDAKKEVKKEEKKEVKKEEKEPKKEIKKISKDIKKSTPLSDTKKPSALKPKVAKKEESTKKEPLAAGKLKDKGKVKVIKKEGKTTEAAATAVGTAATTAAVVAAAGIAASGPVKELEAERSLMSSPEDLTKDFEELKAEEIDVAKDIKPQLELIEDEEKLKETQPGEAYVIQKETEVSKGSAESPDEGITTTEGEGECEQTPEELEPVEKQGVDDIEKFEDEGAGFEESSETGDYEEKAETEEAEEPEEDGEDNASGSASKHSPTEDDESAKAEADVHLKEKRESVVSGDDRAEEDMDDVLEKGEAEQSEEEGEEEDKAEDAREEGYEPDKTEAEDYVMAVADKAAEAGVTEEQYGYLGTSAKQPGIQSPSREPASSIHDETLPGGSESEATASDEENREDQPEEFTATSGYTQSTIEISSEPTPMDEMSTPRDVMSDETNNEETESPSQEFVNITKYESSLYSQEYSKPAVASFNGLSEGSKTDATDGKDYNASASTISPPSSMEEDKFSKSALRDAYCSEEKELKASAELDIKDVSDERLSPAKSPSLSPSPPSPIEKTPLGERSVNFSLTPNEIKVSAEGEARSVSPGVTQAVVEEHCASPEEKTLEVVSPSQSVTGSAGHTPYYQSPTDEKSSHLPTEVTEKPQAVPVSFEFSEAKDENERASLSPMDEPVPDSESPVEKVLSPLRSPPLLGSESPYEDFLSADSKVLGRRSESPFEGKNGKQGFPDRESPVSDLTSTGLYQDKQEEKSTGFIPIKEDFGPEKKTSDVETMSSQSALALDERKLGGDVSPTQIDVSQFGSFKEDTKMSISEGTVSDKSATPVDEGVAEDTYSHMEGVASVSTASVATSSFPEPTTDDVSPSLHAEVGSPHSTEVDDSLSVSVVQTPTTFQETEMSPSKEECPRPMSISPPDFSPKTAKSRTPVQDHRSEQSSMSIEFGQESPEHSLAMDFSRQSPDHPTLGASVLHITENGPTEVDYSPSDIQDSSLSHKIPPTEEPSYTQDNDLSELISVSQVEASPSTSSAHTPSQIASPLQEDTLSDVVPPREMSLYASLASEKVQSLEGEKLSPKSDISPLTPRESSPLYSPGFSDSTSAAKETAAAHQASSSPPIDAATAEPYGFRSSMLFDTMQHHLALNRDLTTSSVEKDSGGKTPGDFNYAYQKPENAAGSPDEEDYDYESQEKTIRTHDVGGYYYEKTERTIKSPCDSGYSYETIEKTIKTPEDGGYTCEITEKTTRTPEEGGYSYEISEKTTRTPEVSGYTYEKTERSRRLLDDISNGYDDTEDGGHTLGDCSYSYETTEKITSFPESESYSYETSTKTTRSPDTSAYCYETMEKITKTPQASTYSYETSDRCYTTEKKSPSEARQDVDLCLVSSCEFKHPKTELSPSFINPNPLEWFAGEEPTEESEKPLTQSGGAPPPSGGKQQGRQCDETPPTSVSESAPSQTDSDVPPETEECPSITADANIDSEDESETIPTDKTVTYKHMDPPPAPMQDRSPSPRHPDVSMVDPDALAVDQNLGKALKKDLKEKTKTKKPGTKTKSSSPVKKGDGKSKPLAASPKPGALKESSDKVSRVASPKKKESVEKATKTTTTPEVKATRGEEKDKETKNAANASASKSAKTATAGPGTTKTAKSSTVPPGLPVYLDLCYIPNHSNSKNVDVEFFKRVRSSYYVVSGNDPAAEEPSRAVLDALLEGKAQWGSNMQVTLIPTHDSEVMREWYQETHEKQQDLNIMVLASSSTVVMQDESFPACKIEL
UniProt Q9JIS5: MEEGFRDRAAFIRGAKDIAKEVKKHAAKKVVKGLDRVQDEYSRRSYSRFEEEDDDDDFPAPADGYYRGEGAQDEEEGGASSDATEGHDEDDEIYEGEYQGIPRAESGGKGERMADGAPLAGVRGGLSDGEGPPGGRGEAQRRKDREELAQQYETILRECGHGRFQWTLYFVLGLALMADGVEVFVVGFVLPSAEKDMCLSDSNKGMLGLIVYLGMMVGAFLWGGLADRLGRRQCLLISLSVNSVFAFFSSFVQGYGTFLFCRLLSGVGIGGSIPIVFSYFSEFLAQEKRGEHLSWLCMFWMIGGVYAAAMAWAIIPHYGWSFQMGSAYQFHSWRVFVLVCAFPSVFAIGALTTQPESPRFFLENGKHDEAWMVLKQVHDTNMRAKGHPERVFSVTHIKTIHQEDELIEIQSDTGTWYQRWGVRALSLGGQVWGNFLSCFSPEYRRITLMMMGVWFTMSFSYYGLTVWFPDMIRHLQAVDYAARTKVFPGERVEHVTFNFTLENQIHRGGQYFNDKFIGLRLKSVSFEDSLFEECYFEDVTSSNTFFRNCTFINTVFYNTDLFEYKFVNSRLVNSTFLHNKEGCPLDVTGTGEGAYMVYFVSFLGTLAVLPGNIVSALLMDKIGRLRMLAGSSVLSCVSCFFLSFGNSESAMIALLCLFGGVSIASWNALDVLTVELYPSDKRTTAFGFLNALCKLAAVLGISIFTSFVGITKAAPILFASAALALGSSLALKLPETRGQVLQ
UniProt P63101: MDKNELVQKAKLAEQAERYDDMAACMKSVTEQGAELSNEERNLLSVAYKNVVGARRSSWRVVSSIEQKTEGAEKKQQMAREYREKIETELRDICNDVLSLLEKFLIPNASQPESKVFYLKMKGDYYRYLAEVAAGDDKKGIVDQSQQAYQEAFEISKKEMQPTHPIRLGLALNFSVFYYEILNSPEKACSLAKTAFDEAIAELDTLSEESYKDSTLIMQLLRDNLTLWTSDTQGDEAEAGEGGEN

B1: Ywhag (14-3-3 family) (protein, UniProt P61982 1-247)
chain: MVDREQLVQKARLAEQAERYDDMAAAMKNVTELNEPLSNEERNLLSVAYKNVVGARRSSWRVISSIEQKTSADGNEKKIEMVRAYREKIEKELEAVCQDVLSLLDNYLIKNCSETQYESKVFYLKMKGDYYRYLAEVATGEKRATVVESSEKAYSEAHEISKEHMQPTHPIRLGLALNYSVFYYEIQNAPEQACHLAKTAFDDAIAELDTLNEDSYKDSTLIMQLLRDNLTLWTSDQQDDDGGEGNN
B2: Ywhaq (14-3-3 family) (protein, UniProt P68254 1-245)
chain: MEKTELIQKAKLAEQAERYDDMATCMKAVTEQGAELSNEERNLLSVAYKNVVGGRRSAWRVISSIEQKTDTSDKKLQLIKDYREKVESELRSICTTVLELLDKYLIANATNPESKVFYLKMKGDYFRYLAEVACGDDRKQTIENSQGAYQEAFDISKKEMQPTHPIRLGLALNFSVFYYEILNNPELACTLAKTAFDEAIAELDTLNEDSYKDSTLIMQLLRDNLTLWTSDSAGEECDAAEGAEN
B3: Ywhab (14-3-3 family) (protein, UniProt Q9CQV8 1-246)
chain: MTMDKSELVQKAKLAEQAERYDDMAAAMKAVTEQGHELSNEERNLLSVAYKNVVGARRSSWRVISSIEQKTERNEKKQQMGKEYREKIEAELQDICNDVLELLDKYLILNATQAESKVFYLKMKGDYFRYLSEVASGENKQTTVSNSQQAYQEAFEISKKEMQPTHPIRLGLALNFSVFYYEILNSPEKACSLAKTAFDEAIAELDTLNEESYKDSTLIMQLLRDNLTLWTSENQGDEGDAGEGEN

biological target: GST-Cpne4 (UniProt Q8BLR2); experiment: affinity purification with mass spectrometry

| binding | Molecule |
| --- | --- |
| binds | 14-3-3Ɛ (from UniProt P62259 1-255) |
| binds | Map1b (from UniProt P14873 1-2464) |
| binds | SV2a (from UniProt Q9JIS5 1-742) |
| binds | Ywhaz (14-3-3 family) (from UniProt P63101 1-245) |
| binds | B1 |
| binds | B2 |
| binds | B3 |
